In publication PMC4899871:
No constants are given. Whether binding was seen depends on the method and setting. In cells and extracts the contact can be indirect. Some results given as binding are weak or reduced against the parent protein; the word gives no strength. For some assays here: Tags and fused reporters may be left off the sequences shown. Each block holds one substance with its values, some of them ahead of it.

Chains of the proteins cited; added tags and fusions are not shown. Lines headed by an entry give the natural chain unless they say otherwise; changes in a name come on top. A line that says so, or that is headed by a name, gives the form on record, which may keep a tag or linker.
UniProt O60603: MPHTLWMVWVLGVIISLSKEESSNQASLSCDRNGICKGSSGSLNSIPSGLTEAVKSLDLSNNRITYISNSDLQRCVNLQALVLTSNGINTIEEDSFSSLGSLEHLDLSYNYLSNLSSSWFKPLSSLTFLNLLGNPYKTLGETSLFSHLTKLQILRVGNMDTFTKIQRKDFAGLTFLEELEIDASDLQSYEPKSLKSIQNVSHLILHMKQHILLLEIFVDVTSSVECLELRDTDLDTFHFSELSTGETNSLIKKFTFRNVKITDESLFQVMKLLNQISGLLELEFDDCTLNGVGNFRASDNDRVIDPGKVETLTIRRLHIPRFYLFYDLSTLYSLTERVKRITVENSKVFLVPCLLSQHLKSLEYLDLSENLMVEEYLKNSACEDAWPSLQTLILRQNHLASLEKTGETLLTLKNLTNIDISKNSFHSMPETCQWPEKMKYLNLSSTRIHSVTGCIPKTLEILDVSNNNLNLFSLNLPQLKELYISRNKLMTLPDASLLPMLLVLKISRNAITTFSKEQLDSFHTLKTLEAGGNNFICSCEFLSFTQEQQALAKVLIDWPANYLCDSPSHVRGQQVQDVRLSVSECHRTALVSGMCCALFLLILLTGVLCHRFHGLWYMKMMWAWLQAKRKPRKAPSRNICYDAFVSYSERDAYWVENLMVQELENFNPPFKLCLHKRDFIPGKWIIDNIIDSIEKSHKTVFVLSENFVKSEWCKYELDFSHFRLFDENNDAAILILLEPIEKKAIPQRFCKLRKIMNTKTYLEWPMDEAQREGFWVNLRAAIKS
UniProt Q9HC29: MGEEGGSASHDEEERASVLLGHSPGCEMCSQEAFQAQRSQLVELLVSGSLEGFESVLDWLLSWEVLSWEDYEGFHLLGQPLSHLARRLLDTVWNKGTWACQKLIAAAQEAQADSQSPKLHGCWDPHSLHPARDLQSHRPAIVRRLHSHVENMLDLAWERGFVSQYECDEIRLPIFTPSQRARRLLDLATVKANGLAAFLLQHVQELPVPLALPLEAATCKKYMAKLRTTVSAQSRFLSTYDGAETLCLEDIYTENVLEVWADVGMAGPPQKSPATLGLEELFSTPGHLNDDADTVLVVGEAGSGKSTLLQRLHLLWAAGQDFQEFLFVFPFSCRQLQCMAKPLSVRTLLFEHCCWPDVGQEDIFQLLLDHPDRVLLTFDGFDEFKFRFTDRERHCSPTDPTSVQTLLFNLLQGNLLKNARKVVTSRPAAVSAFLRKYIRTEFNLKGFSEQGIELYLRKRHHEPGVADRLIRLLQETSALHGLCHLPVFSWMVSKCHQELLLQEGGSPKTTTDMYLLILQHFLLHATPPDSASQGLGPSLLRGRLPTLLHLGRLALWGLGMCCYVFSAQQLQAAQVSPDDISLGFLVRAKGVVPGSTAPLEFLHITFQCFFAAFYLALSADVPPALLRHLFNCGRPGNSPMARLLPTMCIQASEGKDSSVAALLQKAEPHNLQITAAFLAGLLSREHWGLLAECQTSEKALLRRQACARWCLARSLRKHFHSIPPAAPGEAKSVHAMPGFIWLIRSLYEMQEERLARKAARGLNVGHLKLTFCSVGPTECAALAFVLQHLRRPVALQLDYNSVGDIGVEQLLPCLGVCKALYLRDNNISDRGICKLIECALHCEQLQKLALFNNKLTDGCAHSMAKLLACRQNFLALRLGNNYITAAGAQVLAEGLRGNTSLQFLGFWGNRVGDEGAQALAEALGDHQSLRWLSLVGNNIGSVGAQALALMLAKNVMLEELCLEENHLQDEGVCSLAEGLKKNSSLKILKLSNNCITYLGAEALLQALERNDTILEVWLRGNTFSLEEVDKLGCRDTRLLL
UniProt Q8WXF8: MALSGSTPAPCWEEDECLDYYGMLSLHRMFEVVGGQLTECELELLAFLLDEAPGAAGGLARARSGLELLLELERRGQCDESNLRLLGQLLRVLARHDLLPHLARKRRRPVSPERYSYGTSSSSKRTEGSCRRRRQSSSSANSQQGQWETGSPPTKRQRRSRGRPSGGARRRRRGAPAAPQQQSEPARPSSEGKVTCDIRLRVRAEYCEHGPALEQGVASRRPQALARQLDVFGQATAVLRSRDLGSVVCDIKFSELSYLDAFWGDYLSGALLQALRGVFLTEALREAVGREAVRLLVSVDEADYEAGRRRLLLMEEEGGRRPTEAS
UniProt Q9Y228: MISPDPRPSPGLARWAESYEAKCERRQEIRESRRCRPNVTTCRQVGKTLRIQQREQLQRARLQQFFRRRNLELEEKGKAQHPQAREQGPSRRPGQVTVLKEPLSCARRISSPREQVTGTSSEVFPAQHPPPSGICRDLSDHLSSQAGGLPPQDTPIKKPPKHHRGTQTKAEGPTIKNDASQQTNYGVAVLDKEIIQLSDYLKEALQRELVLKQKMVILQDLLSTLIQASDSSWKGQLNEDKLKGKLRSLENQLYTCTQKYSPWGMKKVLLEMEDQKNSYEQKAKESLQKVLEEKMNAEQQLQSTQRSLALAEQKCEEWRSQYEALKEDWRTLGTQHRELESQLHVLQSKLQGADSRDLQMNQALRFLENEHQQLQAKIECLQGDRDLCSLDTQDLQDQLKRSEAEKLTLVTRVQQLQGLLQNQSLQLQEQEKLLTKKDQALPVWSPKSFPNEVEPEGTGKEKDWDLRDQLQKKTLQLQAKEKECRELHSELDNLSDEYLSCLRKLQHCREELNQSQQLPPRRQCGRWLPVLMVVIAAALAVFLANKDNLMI
UniProt Q676U5: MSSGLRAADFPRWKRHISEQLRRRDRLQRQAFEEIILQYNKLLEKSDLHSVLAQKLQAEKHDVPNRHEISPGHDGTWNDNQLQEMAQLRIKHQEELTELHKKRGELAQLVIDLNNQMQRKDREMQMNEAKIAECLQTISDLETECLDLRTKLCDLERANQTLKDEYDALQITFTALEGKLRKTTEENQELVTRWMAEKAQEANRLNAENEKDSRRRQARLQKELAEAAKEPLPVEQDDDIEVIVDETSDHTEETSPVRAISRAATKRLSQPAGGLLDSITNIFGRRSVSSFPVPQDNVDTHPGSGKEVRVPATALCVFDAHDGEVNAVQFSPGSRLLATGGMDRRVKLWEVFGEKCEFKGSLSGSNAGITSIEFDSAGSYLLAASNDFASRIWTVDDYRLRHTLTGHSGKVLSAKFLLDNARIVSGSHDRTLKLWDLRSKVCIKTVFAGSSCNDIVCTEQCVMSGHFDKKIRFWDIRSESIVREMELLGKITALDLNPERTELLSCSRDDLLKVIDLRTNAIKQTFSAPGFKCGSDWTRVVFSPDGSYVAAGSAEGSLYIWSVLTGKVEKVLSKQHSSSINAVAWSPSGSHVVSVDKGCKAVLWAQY
full-length ATG16L1-A300 expressed in bacteria (Q676U5, form named): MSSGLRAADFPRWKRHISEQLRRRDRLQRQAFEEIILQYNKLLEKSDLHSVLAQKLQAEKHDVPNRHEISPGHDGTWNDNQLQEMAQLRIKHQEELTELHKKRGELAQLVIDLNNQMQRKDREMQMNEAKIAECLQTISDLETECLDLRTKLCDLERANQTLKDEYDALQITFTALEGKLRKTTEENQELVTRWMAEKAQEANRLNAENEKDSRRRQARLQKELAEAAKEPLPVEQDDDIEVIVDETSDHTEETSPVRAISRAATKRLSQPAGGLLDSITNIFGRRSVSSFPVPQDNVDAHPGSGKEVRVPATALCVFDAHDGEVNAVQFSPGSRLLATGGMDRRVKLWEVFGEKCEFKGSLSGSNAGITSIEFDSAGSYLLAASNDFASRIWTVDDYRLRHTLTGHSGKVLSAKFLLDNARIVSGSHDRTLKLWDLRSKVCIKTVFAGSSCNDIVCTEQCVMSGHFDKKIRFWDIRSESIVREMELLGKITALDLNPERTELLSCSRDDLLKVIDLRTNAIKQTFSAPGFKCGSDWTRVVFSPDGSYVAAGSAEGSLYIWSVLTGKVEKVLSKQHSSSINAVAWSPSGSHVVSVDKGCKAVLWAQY

What was measured:
[1] = molecular target: T1, TMEM59-GST (in HCT116 cell strains) (UniProt Q9BXS4); test: co-IP; Parental and knock-in HCT116, restored ATG16L1-/- HCT116 and restored Atg16l1-/- MEFs, retrovirally transduced with TMEM59-GST for 36 h; glutathione-agarose precipitates; immunoblot
T1 sequence: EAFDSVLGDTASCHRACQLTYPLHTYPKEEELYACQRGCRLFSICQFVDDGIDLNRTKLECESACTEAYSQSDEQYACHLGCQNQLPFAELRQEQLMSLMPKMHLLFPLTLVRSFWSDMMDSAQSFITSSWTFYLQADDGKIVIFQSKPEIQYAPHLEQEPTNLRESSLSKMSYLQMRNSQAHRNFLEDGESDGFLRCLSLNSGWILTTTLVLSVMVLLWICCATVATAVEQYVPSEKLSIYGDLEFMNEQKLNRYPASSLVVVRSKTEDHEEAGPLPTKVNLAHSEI

[2] = molecular target: T2, TMEM59-GST (TMEM59 tagged with glutathione-S-transferase) (UniProt Q9BXS4); test: co-IP; HEK-293T cells transfected with both partners and lysed 36 h after transfection (1% Igepal CA-630, 50 mM Tris HCl pH 7.5, 150 mM NaCl, 5 mM EDTA); lysate diluted to 0.2% detergent; the GST fusion precipitated on glutathione-agarose (4 °C, 1-3 h); immunoblot
T2 sequence: T1 sequence

[3] = molecular target: T3, TMEM59-GST (in restored Atg16l1-/- MEFs) (UniProt Q9BXS4); test: co-IP; Parental and knock-in HCT116, restored ATG16L1-/- HCT116 and restored Atg16l1-/- MEFs, retrovirally transduced with TMEM59-GST for 36 h; glutathione-agarose precipitates; immunoblot
T3 sequence: T1 sequence

[4] = molecular target: T3, TMEM59-GST (in restored Atg16l1-/- MEFs); test: co-IP; Atg16l1-/- MEFs reconstituted with HA-ATG16L1 T300 or A300, retrovirally transduced with TMEM59-GST, infected with GFP-expressing S. aureus (2 h, m.o.i. 25) or left uninfected; glutathione-agarose precipitates; immunoblot
[5] = molecular target: GST-TLR2(761–779) (UniProt O60603); test: pull-down; GST fusion proteins from E. coli BL21 loaded on glutathione-agarose beads; incubated with crude bacterial lysate containing ATG16L1-T300 or -A300 (equivalent to 1 ml of induced culture, 3 h, 4 °C); western blot; only the target purified
[6] = molecular target: T4, GST-NOD2(63–78) (UniProt Q9HC29); test: as above
T4 sequence: WEVLSWEDYEGFHLLG

[7] = molecular target: T5, GST-DEDD2(12–25) (UniProt Q8WXF8); test: as above
T5 sequence: WEEDECLDYYGMLS

[8] = molecular target: T6, GST-T3JAM(318–333) (UniProt Q9Y228); test: as above
T6 sequence: WRSQYEALKEDWRTLG

[9] = molecular target: T7, GST-263–281 (fusion between GST and the active element of TMEM59) (UniProt Q9BXS4); test: as above
T7 sequence: TAVEQYVPSEKLSIYGDLE

binding [1]: binds
Substance: ATG16L1 of parental HCT116 cells (T300) (from UniProt Q676U5 1-607)

binding [1]: binds
Substance: ATG16L1-A300 of knock-in HCT116 cells (KI-ATG16L1-T300A) (from UniProt Q676U5 1-607)

binding [2]: binds
Substance: HA-ATG16L1-A300 (full-length human ATG16L1β, T300A Crohn's disease risk allele) (from UniProt Q676U5 1-607)

binding [1]: binds
Substance: HA-ATG16L1-A300 (in restored ATG16L1-/- HCT116 cells) (from UniProt Q676U5 1-607)

binding [3]: binds
binding [4]: binds
Substance: HA-ATG16L1-A300 (in restored Atg16l1-/- MEFs) (from UniProt Q676U5 1-607)

binding [2]: binds
Substance: HA-ATG16L1-T300 (full-length human ATG16L1β, non-risk allele) (from UniProt Q676U5 1-607)

binding [1]: binds
Substance: HA-ATG16L1-T300 (in restored ATG16L1-/- HCT116 cells) (from UniProt Q676U5 1-607)

binding [3]: binds
binding [4]: binds
Substance: HA-ATG16L1-T300 (in restored Atg16l1-/- MEFs) (from UniProt Q676U5 1-607)

binding [5]: binds
binding [6]: binds
Substance: full-length ATG16L1-A300 expressed in bacteria (from UniProt Q676U5 1-607)

binding [5]: binds
binding [7]: binds
binding [6]: binds
binding [8]: binds
binding [9]: binds
Substance: full-length ATG16L1-T300 expressed in bacteria (from UniProt Q676U5 1-607)
